Measurements reported in patent US20080112955A1, “METHOD AND COMPOSITION FOR PREVENTING PAIN IN SICKLE CELL PATIENTS” (TRF PHARMA, INC., priority 2002, published 2008).
Some entries share one result that the patent states for a list of compounds. At least one structure is not confirmed: it was looked up by name or label, or the drawing left a doubt.

Tested on: human umbilical vein endothelial cells (HUVECs)
Test: static gravity adherence assay with dip rinse: erythrocyte adherence to endothelial monolayers
Assay type: cell-based
Conditions: range over mAb 9E1, sLeX and their combination
Description: Thrombin treatment of human umbilical vein endothelial cells (HUVECs) and the static gravity adherence assay with dip rinse were performed as previously described. When 90% confluent, HUVECs (Clonetics, San Diego, Calif.) were treated with 0.1 U/mL thrombin (Sigma Chemicals, St Louis, Mo.) or medium alone for 5 minutes before assaying erythrocyte adherence. Adherent RBCs were counted microscopically in 8 randomly selected 0.15-mm2 fields for each study condition. The adherence data may be presented as percent adherence where 100% is the mean adherence of nonsickle RBCs to untreated HUVECs.
Because of potential modulatory effects of heparin on adherence, the static adherence assay was used to compare the adhesivity of sickle cells and autologous plasma according to whether they were prepared with citrate anticoagulant or with heparin. […] The contribution of P-selectin to thrombin-enhanced adherence was determined by comparing the effects on adherence of exposing HUVECs to no antibody, a 1:200 dilution of nonblocking P-selectin monoclonal antibodies (mAbs) AC1.2 (BD Pharmingen, San Diego, Calif.), or a 1:200 dilution of blocking P-selectin mAb 9E1 (R & D Systems, Minneapolis, Minn.). […]
For each experiment mean adherence was set arbitrarily at 100% for the control data. […] The average of the means from replicate experiments was then calculated. […]

For `CC(=O)NC1C(O)CC(OC2C(O)C(CO)OC(OC3C(CO)OC(O)C(NC(C)=O)C3OC3OC(C)C(O)C(O)C3O)C2O)(C(=O)O)OC1C(O)C(O)CO` (centres unmarked) [sLeX, sialyl Lewis X (sLeX) tetrasaccharide], the “inhibition of RBC adherence to thrombin-treated endothelial cells” value (nonsickle cells) was 17%-22% and the “inhibition of RBC adherence to thrombin-treated endothelial cells” value (sickle cells) was 43%-47%.
